Results are given in words; binding and its absence hold for the method and conditions named. Binding seen in cells or lysates may run through a third protein. These calls come from enrichment with a bait or labelling near it, and not all partners need be listed. Where a sequence is shown, tags or fusion partners need not be part of it.
T1: myotubularin (MTM1) with 6x-HIS tag, from Mtm1-6xHis mice (mouse (endogenous in mouse skeletal muscle)) (UniProt Q9Z2C5)
T1 sequence: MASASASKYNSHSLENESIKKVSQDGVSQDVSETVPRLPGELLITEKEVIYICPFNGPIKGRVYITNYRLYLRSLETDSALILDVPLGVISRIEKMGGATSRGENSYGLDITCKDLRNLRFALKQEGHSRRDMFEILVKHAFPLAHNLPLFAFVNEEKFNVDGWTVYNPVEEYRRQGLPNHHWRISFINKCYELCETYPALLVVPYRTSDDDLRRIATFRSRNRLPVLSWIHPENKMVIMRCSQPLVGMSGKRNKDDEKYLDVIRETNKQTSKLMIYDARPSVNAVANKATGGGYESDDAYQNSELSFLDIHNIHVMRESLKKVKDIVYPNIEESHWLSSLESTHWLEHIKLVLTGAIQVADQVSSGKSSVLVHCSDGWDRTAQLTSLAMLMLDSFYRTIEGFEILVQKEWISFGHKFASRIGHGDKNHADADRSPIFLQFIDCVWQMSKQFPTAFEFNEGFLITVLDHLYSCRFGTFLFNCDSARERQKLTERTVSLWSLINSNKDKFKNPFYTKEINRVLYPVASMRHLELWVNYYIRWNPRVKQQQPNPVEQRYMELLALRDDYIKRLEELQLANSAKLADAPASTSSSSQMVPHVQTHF

Sequences of proteins named here, by UniProt entry; tags and fusion partners are left off.
UniProt O08539: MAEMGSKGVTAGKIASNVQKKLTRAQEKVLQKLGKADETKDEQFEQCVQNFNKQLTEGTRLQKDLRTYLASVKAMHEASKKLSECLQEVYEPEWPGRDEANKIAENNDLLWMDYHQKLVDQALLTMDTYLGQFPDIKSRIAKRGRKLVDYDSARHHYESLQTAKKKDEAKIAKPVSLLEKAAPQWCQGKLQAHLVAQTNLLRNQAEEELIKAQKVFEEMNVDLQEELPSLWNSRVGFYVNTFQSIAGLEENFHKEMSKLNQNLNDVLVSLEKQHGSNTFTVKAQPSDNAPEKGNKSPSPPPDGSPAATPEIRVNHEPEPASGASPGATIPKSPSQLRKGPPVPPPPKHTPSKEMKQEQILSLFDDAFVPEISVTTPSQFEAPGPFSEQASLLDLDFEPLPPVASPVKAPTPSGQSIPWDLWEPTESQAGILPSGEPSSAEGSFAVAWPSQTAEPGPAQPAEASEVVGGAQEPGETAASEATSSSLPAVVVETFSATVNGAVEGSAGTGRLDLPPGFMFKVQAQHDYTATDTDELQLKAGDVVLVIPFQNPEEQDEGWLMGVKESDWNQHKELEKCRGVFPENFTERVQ
UniProt Q9QZB6: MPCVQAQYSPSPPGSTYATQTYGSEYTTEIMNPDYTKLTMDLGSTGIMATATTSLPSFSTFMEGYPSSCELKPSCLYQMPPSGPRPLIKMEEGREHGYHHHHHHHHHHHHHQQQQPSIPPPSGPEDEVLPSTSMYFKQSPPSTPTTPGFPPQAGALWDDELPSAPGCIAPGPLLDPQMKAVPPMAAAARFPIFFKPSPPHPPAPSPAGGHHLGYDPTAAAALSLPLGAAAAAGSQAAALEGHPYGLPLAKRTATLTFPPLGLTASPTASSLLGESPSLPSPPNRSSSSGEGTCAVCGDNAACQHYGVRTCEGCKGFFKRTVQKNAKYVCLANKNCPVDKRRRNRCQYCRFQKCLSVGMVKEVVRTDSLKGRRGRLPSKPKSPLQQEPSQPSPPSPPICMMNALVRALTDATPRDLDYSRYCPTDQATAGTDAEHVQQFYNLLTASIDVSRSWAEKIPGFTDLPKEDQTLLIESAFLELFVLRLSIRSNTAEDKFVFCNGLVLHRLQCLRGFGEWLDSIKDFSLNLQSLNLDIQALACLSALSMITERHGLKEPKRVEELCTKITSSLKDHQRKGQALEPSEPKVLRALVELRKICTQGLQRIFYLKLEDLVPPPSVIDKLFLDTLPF

B1: MTMR10 (protein, UniProt Q7TPM9 1-771)
chain: MFSLKPPRPSFRSYLLPPAQTDDKISSEPKIKKLEPVLLPGEIVVNEVNFVRKCIATDTSQYDLWGKLICSNFKISFITDDPMPLQKFHYRNLLLGEHDVPLTCIEQIVTVNDHKRKQKVLGPNQKLKFNPTELIIYCKDFRIVRFRFDESGPESAKKVCLAIAHYSQPTDLQLLFAFEYVGKKYHNSANKVNGVSSGGGGVWSGAGSTGSQRTPLFETYSDWDRETKRTGASGWRVCSINEGYMISTCLPEYFVVPSSLADQDLKIFSHSFVGRRMPFWCWSHSNGSALVRMALIKDALQQRKIDQRICNAITKSHPQRSDVYKSDLDKALPNIQEIQAAFVKLKQLCVNEPFEETEEKWLSSLESTRWLEYVRAFLKHSAELVYILESQRLSVVLQEEEGRDLSCLVASLIQVMMDPYFRTITGFQSLIQKEWVMAGYQFLDRCNHLKRSEKESPLFLLFLDTTWQLLEQYPAAFEFSETYLAVLCDSTRISLFGTFLFNSPHQRVKQSTEFAISKNIQLGDEKGLKFPSVWDWALQFTAKDRTLFHNPFYIGKSTPCVQNGSRKSFKRTKKSYSSTLRGMPSCLKNGIITDQDLLPRRNSLVLKLKPDPPQHTDSQHSGAEQYFKEWFSRPANLHGIILPRLSGTHIKLWKLCYFRWVPEAQINLGGSIMAFHKLSLLADEVDMLSRMLRQHRSGPLEACYAELDQSRMYFRATGPHDTLGTPEFLSSSFPFSPVGNLCRRSILGTPLSKFLSGAKIWLSTETLANED
B2: MTMR12 (protein, UniProt Q80TA6 1-747)
chain: MLGKGGVGGGGGTKAPKPSFVSYVRPEEIHTDEKEVTEKEVTLHLLPGEQLLCEASTVLKYVQEDSCQRGVYGRLVCTDFKISFLGDEDSALDNGGEAQFKNKIIGVNDVPLHCVDQIYGVFDEKKKPLFGQLKKYPEKLVIHCKDLRVLHFCLRYTKEEEVKRIVSGIIHHTQSPKLLKRLFLFSYAAAVHGTATDSRNCTVMFDTPKDWCWELERTKGSVKYRTVSVNEGYRVSDRLPAYFVVPTPLPEDDVRRFQGHGIPIWCWSCHNGSALLKMSALPKEQDDGALQVQKSFLDGIYKTIHRPPYEMVKTEDLSSNFLSLQEIQSAYCKFKQLFLIDNSSEFWDTDIKWFSLLESSSWLDIIRRCLKKAIEITECLEAQNVNVLLLEENASDLCCLLSSLVQVMMDAHCRTRTGFQSLIQKEWVMGGHSFLDRCNHLHQSDKEEVPIFLLFLDCVWQLVHQYPPAFEFTETYLTVLSDSLYIPIFSTFFFNSPHQKDTNMGRENLDAQSKPLTLLTVWDWSVQFEPKAQTLLRNPLYVEKPKLDRGQQKGSRFKHQRQLSLPLTQSKSSPKRGFFREETDHLIKNLLGKRISKLINSSDDLQDSSREFYDSWHSKPTDYHGLLLPHIEGPEIKVWAQRYLRWIPEAQILGGGRVATMGKLLEMMEEVQSLQEKIEARHHRQEAVHAEAPGLLRNSVRLSSLFPFALLQRHSAKPVLPTSGWKALGGEDDLAKREDEFVDLGDV

Target: T1, myotubularin (MTM1) with 6x-HIS tag, from Mtm1-6xHis mice (mouse (endogenous in mouse skeletal muscle))
Assay: affinity purification with mass spectrometry

binding, binds:
BIN1 (from UniProt O08539 1-588)
Nuclear Receptor Subfamily 4 Group A Member (NR4A3) (from UniProt Q9QZB6 1-627)
reticulon 2 (RTN2) (from UniProt O70622-2)
B1
B2

Reference: doi:10.1101/2021.10.11.463940
